# From patent publication US20010039016, “Use of expression profiling for identifying molecular markers useful for diagnosis of metastatic cancer” (published 2001)
# At least one result comes from cells or an extract, where the contact may be indirect. For some of these results: No signal at the amounts used counts as a negative. Where a protein sequence is shown, tags need not be part of it.
# Assays:
# [1] = target: T1, Cdx2 (endogenous, intestinal nuclear extract) (Homo sapiens) (UniProt Q99626); assay: binding assay; conditions: Southwestern blot, ~40 kDa protein in T84 and Caco2 but not HepG2 extracts; protein in an extract; protein details: T84 / Caco2 nuclear extract; label: 32P 5'-end
# T1 sequence (looked up, limits assumed): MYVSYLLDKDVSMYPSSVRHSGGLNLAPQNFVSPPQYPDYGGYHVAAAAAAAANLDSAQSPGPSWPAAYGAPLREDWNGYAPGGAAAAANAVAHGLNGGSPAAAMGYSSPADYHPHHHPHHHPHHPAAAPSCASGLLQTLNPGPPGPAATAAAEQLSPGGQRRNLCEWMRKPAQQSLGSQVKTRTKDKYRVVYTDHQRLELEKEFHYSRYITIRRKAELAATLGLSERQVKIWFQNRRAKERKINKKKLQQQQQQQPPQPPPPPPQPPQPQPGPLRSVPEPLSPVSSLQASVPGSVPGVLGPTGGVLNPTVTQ
# [2] = target: T1, Cdx2 (endogenous, intestinal nuclear extract) (Homo sapiens); assay: EMSA; conditions: protein in an extract, protein details: T84 / Caco2 nuclear extract
# [3] = target: T1, Cdx2 (endogenous, intestinal nuclear extract) (Homo sapiens); assay: competition with a labelled probe; conditions: unlabelled SIF1 competed the FP1 complex with greater potency than FP1; SIF1 also formed complexes with T84 and Caco2 extracts; protein in an extract; protein details: T84 / Caco2 nuclear extract; label: 32P 5'-end
sequence,measurement,setting,value
ATCTCTCTGTTTATAGCTCTGACCTTTCTGGGTGC (double strand) [FP1B],binding result,[1],binds
CAGCTAATCTCTCTGCCCATAGCTCTGACCTTTC (double strand) [FP1-CCC],binding result,"[2]; no specific complex with T84 extract, unlabelled FP1-CCC did not compete, label: 32P …, variant of FP1",no binding
CAGCTAATCTCTCTGTTTATAGCTCTGACCTTTC (double strand) [FP1],binding result,"[2]; intestine-specific complex, supershifted by anti-Cdx2 but not by anti-Cdx1, absent with HepG2 and HeLa extracts, label: 32P 5'-end",binds
GATCCGGCTGGTGAGGGTGCAATAAAACTTTATGAGTA (double strand) [SIF1],binding result,[3],binds
